From patent US20230416361A1 come the findings set out here.

Protein sequences, listed by entry. Tags and fused reporters are not part of them. Residues count along the entry.
UniProt Q8TD46, residues 29-265: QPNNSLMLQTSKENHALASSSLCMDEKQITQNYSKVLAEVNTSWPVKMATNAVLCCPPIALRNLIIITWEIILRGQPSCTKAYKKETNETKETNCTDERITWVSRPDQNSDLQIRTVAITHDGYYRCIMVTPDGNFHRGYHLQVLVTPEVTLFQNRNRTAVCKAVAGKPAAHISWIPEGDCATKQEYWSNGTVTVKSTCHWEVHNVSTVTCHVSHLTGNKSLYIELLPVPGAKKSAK

For this assay, the target named is monomeric soluble human CD200R extracellular domain (human) (UniProt Q8TD46). As to the kind of experiment: SPR (Biacore 3000), human CD200 injected over human CD200R extracellular domain held by the immobilised non-competing anti-CD200R antibody, 25 C. On the technique in general: SPR reads the build-up and loss of mass on a sensor chip optically.

Results are given in words; binding and its absence hold for the method and conditions named. Some binding calls cover weakened binding; strength is not graded here.

B1: human CD200 (ligand, UniProt P41217 31-232, looked up)
chain: QVQVVTQDEREQLYTPASLKCSLQNAQEALIVTWQKKKAVSPENMVTFSENHGVVIQPAYKDKINITQLGLQNSTITFWNITLEDEGCYMCLFNTFGFGKISGTACLTVYVQPIVSLHYKFSEDHLNITCSATARPAPMVFWKVPRSGIENSTVTLSHPNGTTSVTSILHIKDPKNQVGKEVICQVLHLGTVTDFKQTVNKG
In the case of B1, the binding entry is given as “binds”.
